{
  "source": "the supplement of paper PMC12889115",
  "system": "Salmonella enterica serovar Typhimurium SL1344",
  "assay": "bacterial growth OD600 after 18 h with compound and polymyxin B; higher = more bacterial growth (less inhibition)",
  "details": "50 µM, Mueller-Hinton broth",
  "note": "This is one part of the list. These are raw signals, not scaled to a control.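 Primary screen: polymyxin B was added at a level permeabilizing Salmonella outer membranes while sparing inner membranes. DMSO wells, both with and without polymyxin B, established maximum growth. Plate-to-plate variation meant each plate was ranked on its own, and the lowest-OD600 compounds were selected as hits.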",
  "data": [
    {"smiles": "CCN(C)CC1(O)CCCN(Cc2cccc(OC)c2)C1=O", "note": "(stereo not given)", "values": [
      {"measurement": "bacterial growth OD600", "setting": "polymyxin B 1 µg/mL", "value": 0.807}
    ]},
    {"smiles": "CC(C)N1CCN(C(=O)c2coc(COc3ccccc3)n2)CC1", "values": [
      {"measurement": "bacterial growth OD600", "setting": "polymyxin B 0.75 µg/mL", "value": 0.981}
    ]},
    {"smiles": "O=C(NC1CC1)C1CCN(C2CCN(C3C4CC5CC(C4)CC3C5)CC2)CC1", "note": "(stereo not given)", "values": [
      {"measurement": "bacterial growth OD600", "setting": "polymyxin B 1 µg/mL", "value": 0.641}
    ]},
    {"smiles": "COc1ccc(CC(=O)NCC2CCCN(CCCn3cccn3)C2)cc1", "note": "(stereo not given)", "values": [
      {"measurement": "bacterial growth OD600", "setting": "polymyxin B 1 µg/mL", "value": 0.966}
    ]},
    {"smiles": "O=C1N(CC2CCC2)CCCC1(O)CN1CCC(O)CC1", "note": "(stereo not given)", "values": [
      {"measurement": "bacterial growth OD600", "setting": "polymyxin B 1 µg/mL", "value": 0.905}
    ]},
    {"smiles": "Cc1ccccc1N1CCN(C(=O)CCC2(Cc3ccc(-c4ccccc4)cc3)CCC(=O)N2)CC1", "note": "(stereo not given)", "values": [
      {"measurement": "bacterial growth OD600", "setting": "polymyxin B 0.75 µg/mL", "value": 0.003}
    ]},
    {"smiles": "COc1cc(CC2(CCC(=O)NC(C)c3cccs3)CCC(=O)N2)ccc1F", "note": "(stereo not given)", "values": [
      {"measurement": "bacterial growth OD600", "setting": "polymyxin B 0.75 µg/mL", "value": 0.739}
    ]},
    {"smiles": "Cc1ccc(-c2ccnc(-n3ncc(C(=O)N4CCN(Cc5ccccc5)CC4)c3C3CC3)n2)o1", "values": [
      {"measurement": "bacterial growth OD600", "setting": "polymyxin B 0.75 µg/mL", "value": 1.02}
    ]},
    {"smiles": "CCCc1cc(CN(C)C(=O)c2cc(NC(=O)c3ccccc3)cc3ncn(C4CCCC4)c23)n[nH]1", "values": [
      {"measurement": "bacterial growth OD600", "setting": "polymyxin B 0.75 µg/mL", "value": 0.846}
    ]},
    {"smiles": "CC(=O)c1cccc(OCc2cc(C(=O)N(C)Cc3ccno3)n[nH]2)c1", "values": [
      {"measurement": "bacterial growth OD600", "setting": "polymyxin B 1 µg/mL", "value": 0.91}
    ]},
    {"smiles": "COCCCn1c(CN2CCc3c([nH]c4ccccc34)C2C(C)C)cnc1S(C)(=O)=O", "note": "(stereo not given)", "values": [
      {"measurement": "bacterial growth OD600", "setting": "polymyxin B 1 µg/mL", "value": 0.932}
    ]},
    {"smiles": "COc1ccc(CCN2C(=O)O[C@@H]3CN(Cc4nccn4C)C[C@@H]32)cc1", "values": [
      {"measurement": "bacterial growth OD600", "setting": "polymyxin B 0.75 µg/mL", "value": 0.805}
    ]},
    {"smiles": "CN(C(=O)CC(c1ccccc1)c1ccc2c(c1)OCO2)C1CCOCC1", "note": "(stereo not given)", "values": [
      {"measurement": "bacterial growth OD600", "setting": "polymyxin B 0.75 µg/mL", "value": 0.694}
    ]},
    {"smiles": "Cc1nn(C)c(C)c1CN(C(=O)CC1(c2ccc(-c3ccccc3)cc2)CC(=O)N(C)C1=O)C1CC1", "note": "(stereo not given)", "values": [
      {"measurement": "bacterial growth OD600", "setting": "polymyxin B 0.75 µg/mL", "value": 0.002}
    ]},
    {"smiles": "Cc1c[nH]c(CN2CCC(Oc3ccc(Cl)cc3C(=O)NC(C)(C)C)CC2)n1", "values": [
      {"measurement": "bacterial growth OD600", "setting": "polymyxin B 1 µg/mL", "value": 0.948}
    ]},
    {"smiles": "CC#CCN(Cc1ccco1)C(=O)c1cc(Cn2nc(C)cc2C)[nH]n1", "values": [
      {"measurement": "bacterial growth OD600", "setting": "polymyxin B 0.75 µg/mL", "value": 0.848}
    ]},
    {"smiles": "CSc1ccc(C(=O)NC2CCCN(CCc3ccccc3)C2)cc1", "note": "(stereo not given)", "values": [
      {"measurement": "bacterial growth OD600", "setting": "polymyxin B 0.75 µg/mL", "value": 0.773}
    ]},
    {"smiles": "COc1ccc(CN2C[C@@H]3C[C@@H](c4cc(C)c(O)c(C)c4)N4CCC[C@@]34C2=O)cc1", "values": [
      {"measurement": "bacterial growth OD600", "setting": "polymyxin B 0.75 µg/mL", "value": 0.74}
    ]},
    {"smiles": "CCOC(=O)N1CCN(Cc2ccc3c(c2)CN(C(=O)c2cc(C4CC4)on2)CCO3)CC1", "values": [
      {"measurement": "bacterial growth OD600", "setting": "polymyxin B 0.75 µg/mL", "value": 0.721}
    ]},
    {"smiles": "COC(=O)[C@H](Cc1ccccc1)NC(=O)C1(N(C)C)Cc2ccccc2C1", "values": [
      {"measurement": "bacterial growth OD600", "setting": "polymyxin B 0.75 µg/mL", "value": 0.746}
    ]},
    {"smiles": "CO[C@H]1[C@H](NC(=O)c2cccs2)c2ccccc2C12CCN(Cc1nc(C(C)C)cs1)CC2", "values": [
      {"measurement": "bacterial growth OD600", "setting": "polymyxin B 0.75 µg/mL", "value": 0.883}
    ]},
    {"smiles": "COC1CCN(Cc2cn(C)nc2-c2ccc(C3CCCCC3)cc2)CC1", "values": [
      {"measurement": "bacterial growth OD600", "setting": "polymyxin B 1 µg/mL", "value": 0.7}
    ]},
    {"smiles": "CCOCCCNC1CCN(c2ccc(C(=O)N3CCN(C(=O)OCC)CC3)cc2)CC1", "values": [
      {"measurement": "bacterial growth OD600", "setting": "polymyxin B 0.75 µg/mL", "value": 0.798}
    ]},
    {"smiles": "COCC(C)NC(=O)C1CCCN(c2nc(C)c3ccc(S(C)(=O)=O)cc3n2)C1", "note": "(stereo not given)", "values": [
      {"measurement": "bacterial growth OD600", "setting": "polymyxin B 0.75 µg/mL", "value": 0.785}
    ]},
    {"smiles": "O=C(NC1CC1)c1cn(C2CCCCC2)cc(C(=O)NC(c2ccccn2)C(F)(F)F)c1=O", "note": "(stereo not given)", "values": [
      {"measurement": "bacterial growth OD600", "setting": "polymyxin B 0.75 µg/mL", "value": 0.013}
    ]},
    {"smiles": "CCOC(=O)C1(Cc2ccccc2Cl)CCN(S(=O)(=O)c2cc(C)cs2)CC1", "values": [
      {"measurement": "bacterial growth OD600", "setting": "polymyxin B 1 µg/mL", "value": 0.873}
    ]},
    {"smiles": "Cc1nc(N2CCC(C(=O)NCC(C)C)CC2)nc2cc(S(C)(=O)=O)ccc12", "values": [
      {"measurement": "bacterial growth OD600", "setting": "polymyxin B 0.75 µg/mL", "value": 0.781}
    ]},
    {"smiles": "COCc1c(C(=O)NCCc2ccccn2)cnn1-c1ncc2c(n1)-c1ccccc1CCC2", "values": [
      {"measurement": "bacterial growth OD600", "setting": "polymyxin B 0.75 µg/mL", "value": 0.824}
    ]},
    {"smiles": "COCCN1C(=O)NC(Cc2cccc(F)c2)(C2CCN(C(=O)c3cccc(Cl)c3)CC2)C1=O", "note": "(stereo not given)", "values": [
      {"measurement": "bacterial growth OD600", "setting": "polymyxin B 0.75 µg/mL", "value": 0.747}
    ]},
    {"smiles": "O=C(CCC1CCN(C(=O)[C@@H]2C[C@@H]3C=C[C@H]2C3)CC1)N1CCN(c2ccccc2)CC1", "values": [
      {"measurement": "bacterial growth OD600", "setting": "polymyxin B 1 µg/mL", "value": 0.879}
    ]}
  ]
}
